Values from PubChem BioAssay AID1259424 (University of Nebraska Medical Center, 2018).
Shown is a random part of about 14,000 reagents. 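Higher correlation or smaller distance means closer resemblance to KSR1 loss; control wells, including KSR1 knockdowns, recur on many plates.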 Not all columns of the deposit are shown. The record does not give: the time to read-out.

Assay: 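Find knockdowns that reproduce the expression shifts seen after KSR1 loss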 (primary screen)
Cell system: human HCT116 colon cancer cells
Knock-down reagent: siRNA pool against human genes, 50 nM
Measurement: 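Six signature mRNAs by branched-DNA multiplex assay, scaled to two housekeeping genes and non-targeting median, log2; matched to mean KSR1 knockdown profile by Pearson correlation and euclidean distance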
Direction: mean correlation with KSR1 profile: higher = expression change more like KSR1 knockdown; mean distance from KSR1 profile: higher = expression change less like KSR1 knockdown

{"gene": "CD2AP (CD2 associated protein)", "mean correlation with KSR1 profile": 0.245, "mean distance from KSR1 profile": 1.48}
{"gene": "PLEKHA3 (pleckstrin homology domain containing A3)", "mean correlation with KSR1 profile": -0.265, "mean distance from KSR1 profile": 1.78}
{"gene": "JAK3 (Janus kinase 3)", "mean correlation with KSR1 profile": 0.386, "mean distance from KSR1 profile": 2.54}
{"gene": "FNBP1 (formin binding protein 1)", "mean correlation with KSR1 profile": 0.139, "mean distance from KSR1 profile": 0.814}
{"gene": "CCND1 (cyclin D1)", "mean correlation with KSR1 profile": -0.366, "mean distance from KSR1 profile": 3.36}
{"gene": "FMO1 (flavin containing dimethylaniline monoxygenase 1)", "mean correlation with KSR1 profile": -0.537, "mean distance from KSR1 profile": 3.06}
{"gene": "RAB22A (RAB22A, member RAS oncogene family)", "mean correlation with KSR1 profile": -0.229, "mean distance from KSR1 profile": 1.44}
{"gene": "CNNM3", "mean correlation with KSR1 profile": 0.573, "mean distance from KSR1 profile": 1.47}
{"gene": "MIPEP (mitochondrial intermediate peptidase)", "mean correlation with KSR1 profile": 0.52, "mean distance from KSR1 profile": 0.948}
{"gene": "TUBGCP6 (tubulin gamma complex component 6)", "mean correlation with KSR1 profile": 0.462, "mean distance from KSR1 profile": 1.24}
{"gene": "DTNA (dystrobrevin alpha)", "mean correlation with KSR1 profile": 0.0193, "mean distance from KSR1 profile": 1.89}
{"gene": "POLR3D (RNA polymerase III subunit D)", "mean correlation with KSR1 profile": 0.281, "mean distance from KSR1 profile": 1.92}
{"gene": "ZFAT (zinc finger and AT-hook domain containing)", "mean correlation with KSR1 profile": -0.32, "mean distance from KSR1 profile": 1.75}
{"gene": "KRT15 (keratin 15)", "mean correlation with KSR1 profile": -0.68, "mean distance from KSR1 profile": 1.37}
{"gene": "TAAR8 (trace amine associated receptor 8)", "mean correlation with KSR1 profile": 0.909, "mean distance from KSR1 profile": 0.637}
{"gene": "TLR8 (toll like receptor 8)", "mean correlation with KSR1 profile": 0.679, "mean distance from KSR1 profile": 1.43}
{"gene": "KPNA6 (karyopherin subunit alpha 6)", "mean correlation with KSR1 profile": -0.066, "mean distance from KSR1 profile": 2.16}
{"gene": "NOCT (nocturnin)", "mean correlation with KSR1 profile": -0.206, "mean distance from KSR1 profile": 2.55}
{"gene": "SAMD9L (sterile alpha motif domain containing 9 like)", "mean correlation with KSR1 profile": -0.246, "mean distance from KSR1 profile": 2.6}
{"gene": "FXYD4 (FXYD domain containing ion transport regulator 4)", "mean correlation with KSR1 profile": -0.439, "mean distance from KSR1 profile": 6.23}
{"gene": "BUB3 (BUB3 mitotic checkpoint protein)", "mean correlation with KSR1 profile": -0.319, "mean distance from KSR1 profile": 2.37}
{"gene": "CDC37 (cell division cycle 37, HSP90 cochaperone)", "mean correlation with KSR1 profile": 0.0826, "mean distance from KSR1 profile": 1.98}
{"gene": "GRM5 (glutamate metabotropic receptor 5)", "mean correlation with KSR1 profile": 0.544, "mean distance from KSR1 profile": 1.44}
{"gene": "CLSTN3 (calsyntenin 3)", "mean correlation with KSR1 profile": 0.00836, "mean distance from KSR1 profile": 2.78}
{"gene": "RBPJ", "mean correlation with KSR1 profile": -0.119, "mean distance from KSR1 profile": 2.84}
{"gene": "H2AZ1 (H2A.Z variant histone 1)", "mean correlation with KSR1 profile": 0.558, "mean distance from KSR1 profile": 1.7}
{"gene": "PEG3 (paternally expressed 3)", "mean correlation with KSR1 profile": -0.295, "mean distance from KSR1 profile": 2.75}
{"gene": "NMNAT1 (nicotinamide nucleotide adenylyltransferase 1)", "mean correlation with KSR1 profile": -0.276, "mean distance from KSR1 profile": 2.44}

2 entries from above, sorted by “mean correlation with KSR1 profile”, lowest first.
{"gene": "CDC37 (cell division cycle 37, HSP90 cochaperone)", "mean correlation with KSR1 profile": 0.0826, "mean distance from KSR1 profile": 1.98}
{"gene": "GRM5 (glutamate metabotropic receptor 5)", "mean correlation with KSR1 profile": 0.544, "mean distance from KSR1 profile": 1.44}
